From the supplement of paper PMC10849652
The other results are listed elsewhere or left out.

Protein sequences, listed by entry. Tags and fused reporters are not part of them. Lines headed by an entry give the natural chain unless they say otherwise; changes in a name come on top.
UniProt Q9UQB8: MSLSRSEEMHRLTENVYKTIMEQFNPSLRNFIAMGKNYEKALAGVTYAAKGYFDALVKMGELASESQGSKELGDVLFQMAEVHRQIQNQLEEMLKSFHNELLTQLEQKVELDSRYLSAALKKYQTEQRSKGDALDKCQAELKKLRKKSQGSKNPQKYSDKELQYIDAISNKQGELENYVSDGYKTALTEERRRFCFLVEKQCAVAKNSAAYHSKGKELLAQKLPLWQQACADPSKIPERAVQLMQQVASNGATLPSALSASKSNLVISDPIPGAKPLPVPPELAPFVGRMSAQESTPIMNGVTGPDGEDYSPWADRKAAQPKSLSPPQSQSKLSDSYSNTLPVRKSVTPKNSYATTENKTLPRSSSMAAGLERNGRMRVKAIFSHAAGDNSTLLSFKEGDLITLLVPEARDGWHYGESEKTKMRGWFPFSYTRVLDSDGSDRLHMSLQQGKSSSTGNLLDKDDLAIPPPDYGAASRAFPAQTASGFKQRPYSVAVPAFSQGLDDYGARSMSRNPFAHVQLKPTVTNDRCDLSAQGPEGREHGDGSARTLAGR
UniProt O14503, whole entry, looked up: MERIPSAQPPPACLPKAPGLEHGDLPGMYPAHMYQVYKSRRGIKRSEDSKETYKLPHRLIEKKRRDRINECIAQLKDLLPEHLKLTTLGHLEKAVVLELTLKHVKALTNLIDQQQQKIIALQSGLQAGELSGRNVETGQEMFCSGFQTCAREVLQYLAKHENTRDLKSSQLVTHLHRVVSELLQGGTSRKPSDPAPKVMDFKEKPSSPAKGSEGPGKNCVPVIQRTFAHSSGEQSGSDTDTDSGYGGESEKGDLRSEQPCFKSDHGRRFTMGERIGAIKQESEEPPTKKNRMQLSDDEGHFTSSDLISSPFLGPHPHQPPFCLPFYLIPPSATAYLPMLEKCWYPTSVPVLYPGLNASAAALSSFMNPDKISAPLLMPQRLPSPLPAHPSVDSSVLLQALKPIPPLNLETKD
UniProt Q9HAW0, whole entry, looked up: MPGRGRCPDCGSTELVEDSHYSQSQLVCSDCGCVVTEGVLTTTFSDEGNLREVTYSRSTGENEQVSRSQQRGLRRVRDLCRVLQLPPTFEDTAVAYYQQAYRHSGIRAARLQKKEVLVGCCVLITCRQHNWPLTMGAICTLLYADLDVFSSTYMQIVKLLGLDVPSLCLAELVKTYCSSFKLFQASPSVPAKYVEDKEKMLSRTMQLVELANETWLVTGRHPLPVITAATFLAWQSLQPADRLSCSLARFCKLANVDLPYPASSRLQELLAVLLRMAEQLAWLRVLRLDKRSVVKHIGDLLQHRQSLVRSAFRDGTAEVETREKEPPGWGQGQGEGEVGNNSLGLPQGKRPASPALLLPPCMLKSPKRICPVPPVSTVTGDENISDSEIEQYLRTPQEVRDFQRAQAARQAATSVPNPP
UniProt Q9BUT1: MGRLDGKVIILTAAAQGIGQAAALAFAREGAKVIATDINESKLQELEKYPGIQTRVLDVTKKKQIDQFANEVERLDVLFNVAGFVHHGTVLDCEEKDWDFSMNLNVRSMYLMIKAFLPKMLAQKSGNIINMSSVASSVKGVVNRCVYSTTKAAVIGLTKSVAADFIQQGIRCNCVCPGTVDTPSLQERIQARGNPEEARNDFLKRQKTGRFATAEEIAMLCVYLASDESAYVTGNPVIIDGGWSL
UniProt Q9NZM4: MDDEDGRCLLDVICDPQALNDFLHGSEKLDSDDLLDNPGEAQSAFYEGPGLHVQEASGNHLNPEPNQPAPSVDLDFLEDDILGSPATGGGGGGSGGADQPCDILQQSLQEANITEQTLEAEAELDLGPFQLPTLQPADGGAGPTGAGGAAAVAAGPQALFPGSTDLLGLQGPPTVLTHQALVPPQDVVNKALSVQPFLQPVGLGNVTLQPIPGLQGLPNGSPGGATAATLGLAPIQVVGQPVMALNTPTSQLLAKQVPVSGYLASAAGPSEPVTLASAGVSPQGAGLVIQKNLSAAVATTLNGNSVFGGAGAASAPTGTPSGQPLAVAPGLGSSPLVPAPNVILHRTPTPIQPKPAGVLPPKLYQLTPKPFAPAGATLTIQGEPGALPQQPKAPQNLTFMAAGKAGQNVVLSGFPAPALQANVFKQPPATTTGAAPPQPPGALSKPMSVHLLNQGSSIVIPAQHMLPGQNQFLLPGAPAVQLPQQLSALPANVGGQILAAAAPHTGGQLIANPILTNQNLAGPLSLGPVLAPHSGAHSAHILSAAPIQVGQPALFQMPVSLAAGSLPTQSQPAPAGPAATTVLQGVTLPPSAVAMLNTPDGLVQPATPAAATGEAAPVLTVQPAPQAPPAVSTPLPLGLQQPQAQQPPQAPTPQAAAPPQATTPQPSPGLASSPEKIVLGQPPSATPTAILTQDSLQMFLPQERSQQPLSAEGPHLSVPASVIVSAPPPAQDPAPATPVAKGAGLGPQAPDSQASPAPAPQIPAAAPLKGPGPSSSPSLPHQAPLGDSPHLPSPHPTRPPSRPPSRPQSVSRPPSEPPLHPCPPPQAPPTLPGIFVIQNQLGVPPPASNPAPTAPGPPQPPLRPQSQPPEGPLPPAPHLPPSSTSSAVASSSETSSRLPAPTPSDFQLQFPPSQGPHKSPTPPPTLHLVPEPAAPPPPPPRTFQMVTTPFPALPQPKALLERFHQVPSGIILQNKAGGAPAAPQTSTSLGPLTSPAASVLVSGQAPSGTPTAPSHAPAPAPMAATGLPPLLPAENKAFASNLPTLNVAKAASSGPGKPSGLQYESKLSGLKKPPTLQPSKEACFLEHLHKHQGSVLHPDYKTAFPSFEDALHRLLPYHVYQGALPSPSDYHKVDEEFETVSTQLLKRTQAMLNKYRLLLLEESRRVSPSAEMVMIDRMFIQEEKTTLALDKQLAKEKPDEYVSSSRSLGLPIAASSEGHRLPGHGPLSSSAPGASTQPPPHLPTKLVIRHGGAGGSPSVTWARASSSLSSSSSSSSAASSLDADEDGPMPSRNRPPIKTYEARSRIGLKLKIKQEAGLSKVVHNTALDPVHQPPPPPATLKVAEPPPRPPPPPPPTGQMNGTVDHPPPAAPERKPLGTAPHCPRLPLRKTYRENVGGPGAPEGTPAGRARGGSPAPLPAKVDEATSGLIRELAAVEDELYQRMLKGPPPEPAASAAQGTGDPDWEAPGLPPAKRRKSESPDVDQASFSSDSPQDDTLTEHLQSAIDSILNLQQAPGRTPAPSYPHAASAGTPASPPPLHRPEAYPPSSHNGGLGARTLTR
UniProt Q9NWD9: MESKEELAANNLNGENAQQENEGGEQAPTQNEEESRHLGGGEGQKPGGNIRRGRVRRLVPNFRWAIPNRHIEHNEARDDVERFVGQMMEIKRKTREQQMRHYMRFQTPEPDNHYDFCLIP
UniProt O43505: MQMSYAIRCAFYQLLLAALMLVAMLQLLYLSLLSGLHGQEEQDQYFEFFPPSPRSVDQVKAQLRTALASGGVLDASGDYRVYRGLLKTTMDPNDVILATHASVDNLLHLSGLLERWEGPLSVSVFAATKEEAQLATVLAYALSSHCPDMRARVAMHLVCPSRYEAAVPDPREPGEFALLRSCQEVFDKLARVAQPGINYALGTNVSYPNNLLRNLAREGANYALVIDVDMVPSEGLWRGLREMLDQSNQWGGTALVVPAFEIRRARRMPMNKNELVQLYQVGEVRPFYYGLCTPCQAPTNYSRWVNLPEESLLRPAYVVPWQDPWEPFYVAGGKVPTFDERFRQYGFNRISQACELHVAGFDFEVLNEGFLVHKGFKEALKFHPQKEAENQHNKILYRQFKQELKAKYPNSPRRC

Legend:
Assay in all cases: log2 fold change, soluble protein after heating vs DMSO (PISA); higher = thermal stabilisation; K562 lysate, 10 uM; active = over 0.2 and 3.5 SD of the protein, either way, in both replicates (recomputed)
[1] = compound: O=C1NC(=O)C(c2cnc3ccccn23)=C1c1cn2c3c(cc(F)cc13)CN(C(=O)N1CCCCC1)CC2
Summary of the method: (§1)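 A 30 min treatment with 10 μM compound was applied to crude K562 extract at 1 mg/mL protein in PBS pH 7.4 with 1 mM MgCl2. Heating for 3 min spanned 48°C-58°C, after which aliquots were pooled, adjusted to 0.5% NP-40 at 4°C and spun at 21,000xg for 90 min. TMTpro 16plex LC-MS/MS of the supernatant, with channel sums equalised, gave values recorded as log-two fold change in thermal stability against solvent controls, from duplicates.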

vorinostat = compound: O=C(CCCCCCC(=O)Nc1ccccc1)NO [vorinostat]
Summary of the method: as §1

silmitasertib = compound: O=C(O)c1ccc2c(c1)nc(Nc1cccc(Cl)c1)c1ccncc12 [silmitasertib]
Summary of the method: as §1

entospletinib = compound: c1cn2cc(-c3ccc4cn[nH]c4c3)nc(Nc3ccc(N4CCOCC4)cc3)c2n1 [entospletinib]
Summary of the method: as §1

| Target | log2 fold change [1] | log2 fold change (vorinostat) | log2 fold change (silmitasertib) | log2 fold change (entospletinib) |
| --- | --- | --- | --- | --- |
| BAIAP2 isoform 6 (UniProt Q9UQB8) | inactive: -0.115 | – | – | – |
| BEGAIN, A0A1B0GVM0 | inactive: 0.017 | inactive: 0.354 | inactive: -0.011 | inactive: 0.071 |
| BHLHE40 (UniProt O14503) | inactive: 0.005 | inactive: 0.043 | inactive: 0.052 | – |
| BNIP2 (UniProt H7C096) | – | – | – | inactive: -0.06 |
| BRF2 (UniProt Q9HAW0) | – | – | – | inactive: -0.103 |
| BDH2 (UniProt Q9BUT1) | inactive: -0.013 | inactive: 0.061 | inactive: -0.025 | inactive: 0.057 |
| BICRA (UniProt Q9NZM4) | inactive: -0.076 | inactive: 0.11 | inactive: -0.203 | – |
| BEX4 (UniProt Q9NWD9) | inactive: -0.106 | inactive: 0.029 | inactive: 0.016 | – |
| B4GAT1 (UniProt O43505) | inactive: -0.035 | inactive: -0.073 | inactive: 0.086 | – |
